Article PMC4969713 (Journal of Alzheimer's Disease, 2016)

System: guinea pigs
Assay: Q-T interval, guinea pigs
Assay type: in vivo
Conditions: 10 mg/kg IP

`CCCCc1oc2ccccc2c1C(=O)c1cc(I)c(OCCN(CC)CC)c(I)c1` [amiodaron, reference compound] was tested, and the QT prolongation was “expected QT prolongation”.
